Assay results published in publication PMC9714852.
These are yes or no findings as the source states them, for the method shown. In cells and extracts the contact can be indirect. Some binding calls cover weakened binding; strength is not graded here.

The chains behind the UniProt entries cited, without tags or fusion partners.
UniProt P10415: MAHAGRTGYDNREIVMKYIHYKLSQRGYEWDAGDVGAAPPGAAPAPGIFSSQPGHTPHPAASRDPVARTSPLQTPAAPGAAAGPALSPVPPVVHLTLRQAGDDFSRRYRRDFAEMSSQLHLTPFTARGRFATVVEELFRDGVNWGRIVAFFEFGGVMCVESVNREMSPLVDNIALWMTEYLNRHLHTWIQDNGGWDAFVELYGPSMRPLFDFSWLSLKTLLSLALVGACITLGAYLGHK
UniProt Q14457: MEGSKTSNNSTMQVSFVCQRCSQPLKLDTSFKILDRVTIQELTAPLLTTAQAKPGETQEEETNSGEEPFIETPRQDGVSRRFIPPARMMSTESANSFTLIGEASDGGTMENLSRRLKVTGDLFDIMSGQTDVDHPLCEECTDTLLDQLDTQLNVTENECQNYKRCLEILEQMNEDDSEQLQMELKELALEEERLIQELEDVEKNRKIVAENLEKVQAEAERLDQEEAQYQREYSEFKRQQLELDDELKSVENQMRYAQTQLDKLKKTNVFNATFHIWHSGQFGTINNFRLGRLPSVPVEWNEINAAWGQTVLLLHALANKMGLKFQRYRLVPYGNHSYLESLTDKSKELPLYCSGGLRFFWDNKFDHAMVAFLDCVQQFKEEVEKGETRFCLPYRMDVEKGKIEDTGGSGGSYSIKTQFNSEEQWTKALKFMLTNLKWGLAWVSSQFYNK

Target: B-cell lymphoma 2 (human (endogenous in ARPE-19)) (UniProt P10415)
Assay: co-IP; ARPE-19 cell lysates added to Dynabeads protein A with Bcl-2 antibody, 4°C overnight with rotation, washed with PBS-T, western blot; cells treated with vehicle, 100 μM CQ, 2 μM PPD+100 μM CQ or 2 μM PPD for 6 h

binding: binds
Substance: Beclin-1 (from UniProt Q14457 1-450)
